Results as given in PMC7819943, “Rice protein-binding microarrays: a tool to detect cis-acting elements near promoter regions in rice”.
The list shows a part of the results.

The chains behind the UniProt entries cited, without tags or fusion partners.
UniProt Q0JBA9, entry or part of it: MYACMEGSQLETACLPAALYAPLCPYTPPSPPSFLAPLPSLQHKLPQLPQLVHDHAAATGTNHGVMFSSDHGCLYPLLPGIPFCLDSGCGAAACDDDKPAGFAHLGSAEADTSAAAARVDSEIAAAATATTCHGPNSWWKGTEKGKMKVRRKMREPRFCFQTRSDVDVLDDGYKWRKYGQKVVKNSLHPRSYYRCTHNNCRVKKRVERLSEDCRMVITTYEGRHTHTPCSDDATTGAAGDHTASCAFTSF

What follows are sequences tested against OsWRKY34 (Oryza sativa, UniProt Q0JBA9 1-250) (assay: protein-binding microarray (RPBM); PBS, 2% BSA, 51.3 ng/ul salmon testes DNA, 50 uM zinc acetate, 200 nM TF, 25 C, 1 h; high values mean tight binding). Settings: protein: recombinant; tags: N-terminal polyhistidine and DsRed monomer fusion (pET32a); label: CyDye5-dUTP incorporated in the synthesized complementary strand; 3' TTTTT single-stranded linker to array surface; dsDNA, one strand shown.
Summary of the method: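 Polyhistidine-tagged DsRed fusions of transcription factors, joined at the N-terminus, were expressed in E. coli BL21-CodonPlus and isolated on Ni–NTA. They were incubated at 200 nM for 1 h at 25 °C on a custom Agilent array, double-stranded and BSA-blocked, in PBS with 2% BSA, salmon testes DNA and 50 µM zinc acetate. The binding signal is per-feature fluorescence intensity (arbitrary units) read on an Axon 4000B scanner after washing.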

In order of rising binding signal:
1. CACCTGCCGCTGCTCCGACGGCCGCCTCGTCGTCGACTTCCGGAGTCACCTAGTGCAG  8130 fluorescence intensity (a.u.)
2. GACGGCCTGACCCCACCATTCTTCTTCTCCAAGCAACCGTCGGAGTCACCTAGTGCAG  8180 fluorescence intensity (a.u.)
3. TTTATTGCAGTCTATTATCTATCTTTGTTTCAAATTATTACGGAGTCACCTAGTGCAG  8200 fluorescence intensity (a.u.)
4. AAGCCACACCCTTAAGGGTCTCTTTGAATCGCAGGGTTGACGGAGTCACCTAGTGCAG  8230 fluorescence intensity (a.u.)
5. CCCTAGTGGGTAGGATTTGGGCGGGCGACGACGGGCATGGCGGAGTCACCTAGTGCAG  8240 fluorescence intensity (a.u.)
6. GGCGGTGGCGGTGGAGGCGGCGGCGGCTATCGTGGGGATGCGGAGTCACCTAGTGCAG  8280 fluorescence intensity (a.u.)
7. ATCGCAAGCACTGAAGCACCCACACACCCTACCTCCACACCGGAGTCACCTAGTGCAG  8310 fluorescence intensity (a.u.)
8. CTCACCTAACACACATGCACAGACGATCTCATGACATTAACGGAGTCACCTAGTGCAG  8320 fluorescence intensity (a.u.)
9. GGCGAATCTTGCAGTCTCATTTTCTACCAGTCCTGGTTTGCGGAGTCACCTAGTGCAG  8350 fluorescence intensity (a.u.)
10. AAGCAAAACGAGTCTCCATCTCCACAGTGGGCGTAGCTTTCGGAGTCACCTAGTGCAG  8380 fluorescence intensity (a.u.)
11. CCCACGGTTTGTACCGCCGGTAAACGCCCTCGCGACCCTTCGGAGTCACCTAGTGCAG  8400 fluorescence intensity (a.u.)
12. GTCGCGCGAGGCTGTACCACTACTTGTGTTTGTTTACTCACGGAGTCACCTAGTGCAG  8440 fluorescence intensity (a.u.)
13. GGGGATTGGGAGTTTATACAAGGGAATTGATGGTGAGATTCGGAGTCACCTAGTGCAG  8440 fluorescence intensity (a.u.)
14. GATCTGGGTATCTTTCCGTCAATCAAATTGCCACTTAAATCGGAGTCACCTAGTGCAG  8480 fluorescence intensity (a.u.)
15. TGTGGTATATTTTCTGTGGCCCTGAAAATATTTGGTTCAACGGAGTCACCTAGTGCAG  8500 fluorescence intensity (a.u.)
16. TTAGTAGTAGTAGCAGCACACAAGCATTTAATCTTCTTTTCGGAGTCACCTAGTGCAG  8560 fluorescence intensity (a.u.)
17. ATATTTTGTTTTGCTTTTCTCAGTTTGGGTCCTCTCTTCTCGGAGTCACCTAGTGCAG  8770 fluorescence intensity (a.u.)
18. CTATCGTCGTCGTCGTCATCATCATCTTTTTTCTATTGTTCGGAGTCACCTAGTGCAG  8830 fluorescence intensity (a.u.)
19. CTTTCAGGCTTCATTCAGACTTCAGCTCAGTCATTCAGGCCGGAGTCACCTAGTGCAG  8850 fluorescence intensity (a.u.)
20. TCCCGGCGCCAGATCTGCTTCTCATCTCCACAAGGACACCCGGAGTCACCTAGTGCAG  8970 fluorescence intensity (a.u.)
21. TTTTTTGTTCTTCCTCGAACTCGAAGAACGCACACCGTCTCGGAGTCACCTAGTGCAG  9020 fluorescence intensity (a.u.)
22. TGCTGTGTGTTTGTGTTTCGACTGGTTAGACCAGCATGTTCGGAGTCACCTAGTGCAG  9090 fluorescence intensity (a.u.)
23. GCATATAAACTCTACTTCTCTCTGTTTGATATGTTGGTCACGGAGTCACCTAGTGCAG  9290 fluorescence intensity (a.u.)
24. TTCCCCATCCGAGCCTTGAGCTCTTCTTCTTCTCTCTCTCCGGAGTCACCTAGTGCAG  9300 fluorescence intensity (a.u.)
25. ACTGCCTCCCCTCGTCCGTCCCCAGTTCGTCACCCTTCATCGGAGTCACCTAGTGCAG  9370 fluorescence intensity (a.u.)
26. GCGCTTCCGCCGTGCTTCCCCACTGCGGCGGCCGCCGCCACGGAGTCACCTAGTGCAG  9370 fluorescence intensity (a.u.)
27. GCCCGCGTGGGGCCCACGTTGACTCAGCACAAACTGACTACGGAGTCACCTAGTGCAG  9410 fluorescence intensity (a.u.)
28. CACCCCTTGCTACTGCAGTATCAAATGCATCTCTATAATACGGAGTCACCTAGTGCAG  9670 fluorescence intensity (a.u.)
29. CGGCTCCACCTCGCGCCCTGACCTGACGCGGATAGGTTTTCGGAGTCACCTAGTGCAG  9700 fluorescence intensity (a.u.)
30. GGGGTTGGTGGACGACTATCCAGTCGTGACTCGTAAGGGCCGGAGTCACCTAGTGCAG  9840 fluorescence intensity (a.u.)
31. GTTACTTGTTCGTCTCAACCATCCTTATTTTAACATGATACGGAGTCACCTAGTGCAG  10400 fluorescence intensity (a.u.)
32. TTTTACACATATTCCATCTTCGCTCTTTTGTTCTGGGAAACGGAGTCACCTAGTGCAG  10500 fluorescence intensity (a.u.)
33. ACACGTTCCCGCGCCCATTTTTCTTTACATTATCCTCGGACGGAGTCACCTAGTGCAG  10700 fluorescence intensity (a.u.)
34. ACGTTGTTTGTGTCACGCTTCTCAAATCCCTTGGTGTTCTCGGAGTCACCTAGTGCAG  11700 fluorescence intensity (a.u.)
35. AATATGGTGCCAATTTTTTTTTTCGGTTTTGCTACTTCACCGGAGTCACCTAGTGCAG  11900 fluorescence intensity (a.u.)
36. AAGCATACATCGATGTCCTCAATCTTGACTGTCTTCATCACGGAGTCACCTAGTGCAG  12000 fluorescence intensity (a.u.)
37. AAATATTTGACCGTTCGTTTATTATTTTTATTTTTTTTACCGGAGTCACCTAGTGCAG  12200 fluorescence intensity (a.u.)
38. TAATTTGATGTGGTATGTGTTAGTTTATTTTTCATCAAAACGGAGTCACCTAGTGCAG  12200 fluorescence intensity (a.u.)
39. TCATCTATTCTCTTCCTTCTTTTCTGTTCTGCATTTCTGTCGGAGTCACCTAGTGCAG  12400 fluorescence intensity (a.u.)
40. TGGTGGTGGGTGAGTGTTGGGTGCGCAGGCTCTGGGGTAACGGAGTCACCTAGTGCAG  12900 fluorescence intensity (a.u.)
41. TATGGGTAGGTTCTTGTTCTATGGGGCAGGGGTCTTAAAGCGGAGTCACCTAGTGCAG  17100 fluorescence intensity (a.u.)
42. AGATTGGGTTTGGGTGGTGTGAGGATTGATTTGTTTTTTTCGGAGTCACCTAGTGCAG  17800 fluorescence intensity (a.u.)
